{"sequences": {"note": "By UniProt entry, the sequences of proteins in these tests, tags left out. Where a name states a change or a piece, a line headed by the entry shows the natural chain unless it says otherwise.", "UniProt P03372": "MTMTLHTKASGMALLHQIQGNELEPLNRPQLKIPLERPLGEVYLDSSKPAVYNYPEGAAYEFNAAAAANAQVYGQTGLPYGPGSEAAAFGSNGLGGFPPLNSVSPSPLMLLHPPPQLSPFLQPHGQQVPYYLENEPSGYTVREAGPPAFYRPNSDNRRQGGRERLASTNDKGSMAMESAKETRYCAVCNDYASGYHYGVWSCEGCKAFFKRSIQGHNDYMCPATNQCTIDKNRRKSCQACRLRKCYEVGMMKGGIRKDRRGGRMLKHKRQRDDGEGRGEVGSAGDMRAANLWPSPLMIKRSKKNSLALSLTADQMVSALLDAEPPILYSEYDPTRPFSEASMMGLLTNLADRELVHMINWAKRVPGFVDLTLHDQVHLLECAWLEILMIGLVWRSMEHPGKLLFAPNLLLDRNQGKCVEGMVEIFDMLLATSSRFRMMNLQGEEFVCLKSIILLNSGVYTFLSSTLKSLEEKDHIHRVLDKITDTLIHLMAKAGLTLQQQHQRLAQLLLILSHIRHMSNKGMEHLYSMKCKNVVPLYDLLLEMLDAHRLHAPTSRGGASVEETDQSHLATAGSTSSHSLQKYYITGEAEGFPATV", "UniProt P42224": "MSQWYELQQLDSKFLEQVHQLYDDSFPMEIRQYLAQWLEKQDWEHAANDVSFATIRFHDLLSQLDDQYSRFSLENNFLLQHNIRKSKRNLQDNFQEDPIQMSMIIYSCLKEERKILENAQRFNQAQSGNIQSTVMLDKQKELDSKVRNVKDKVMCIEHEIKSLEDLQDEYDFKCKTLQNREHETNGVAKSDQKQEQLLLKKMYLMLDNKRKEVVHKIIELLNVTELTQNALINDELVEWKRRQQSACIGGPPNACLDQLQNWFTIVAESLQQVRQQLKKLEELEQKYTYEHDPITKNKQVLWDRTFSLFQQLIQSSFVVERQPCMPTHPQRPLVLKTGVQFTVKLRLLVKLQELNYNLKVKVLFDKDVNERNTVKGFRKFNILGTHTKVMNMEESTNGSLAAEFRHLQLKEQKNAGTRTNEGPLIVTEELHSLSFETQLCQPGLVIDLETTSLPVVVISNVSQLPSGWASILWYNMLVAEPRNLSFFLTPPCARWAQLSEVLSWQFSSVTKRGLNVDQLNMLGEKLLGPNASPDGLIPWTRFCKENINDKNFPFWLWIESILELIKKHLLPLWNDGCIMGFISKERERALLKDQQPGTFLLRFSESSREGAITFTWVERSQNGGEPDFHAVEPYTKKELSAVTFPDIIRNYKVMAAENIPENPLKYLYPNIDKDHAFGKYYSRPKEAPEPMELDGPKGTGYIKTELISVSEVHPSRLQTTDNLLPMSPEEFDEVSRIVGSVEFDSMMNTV"}, "source": "paper PMC8534010", "key": {"[1]": {"biological_target": "estrogen receptor (ERα) (human (endogenous in MCF-7:5C, MCF-7 and T47D)) (UniProt P03372)", "test": "co-IP; T47D (AI-sensitive) cell lysate incubated overnight at 4 °C with 2 µg anti-ERα or rabbit IgG, Protein A/G magnetic beads, Western blot"}, "[2]": {"biological_target": "estrogen receptor (ERα) (human (endogenous in MCF-7:5C, MCF-7 and T47D)) (UniProt P03372)", "test": "co-IP; MCF-7 (AI-sensitive) cell lysate incubated overnight at 4 °C with 2 µg anti-ERα or rabbit IgG, Protein A/G magnetic beads, Western blot"}, "[3]": {"biological_target": "estrogen receptor (ERα) (human (endogenous in MCF-7:5C, MCF-7 and T47D)) (UniProt P03372)", "test": "proximity ligation; Duolink PLA Fluorescence on fixed, permeabilised MCF-7 (AI-sensitive) cells, ERα rabbit and STAT1 mouse antibodies"}, "[4]": {"biological_target": "estrogen receptor (ERα) (human (endogenous in MCF-7:5C, MCF-7 and T47D)) (UniProt P03372)", "test": "proximity ligation; Duolink PLA Fluorescence on fixed, permeabilised T47D (AI-sensitive) cells, ERα rabbit and STAT1 mouse antibodies"}}, "note": "Results are given in words; binding and its absence hold for the method and conditions named. In cells and extracts the contact can be indirect.", "data": [{"substance": "STAT1 (from UniProt P42224 1-750)", "values": [{"measurement": "binding", "setting": "[1]", "value": "no binding (condition: in AI-sensitive T47D cells)"}, {"measurement": "binding", "setting": "[2]", "value": "no binding (condition: in AI-sensitive MCF-7 cells)"}, {"measurement": "binding", "setting": "[3]", "value": "no binding (condition: in AI-sensitive MCF-7 cells)"}, {"measurement": "binding", "setting": "[4]", "value": "no binding (condition: in AI-sensitive T47D cells)"}]}]}
